PubChem BioAssay AID1259280 | Sanger Institute – 2017

Screen: 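Essential kinases and drug-combination synergies in SNU407 cells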 (primary screen)
System: human SNU407 colorectal cancer cells
Knock-down reagent: siRNA pool against human genes
Challenge: anchor drugs BYL719 at 1 µM, cetuximab at 5 µg/ml or trametinib at 10 nM, or DMSO vehicle alone; exposure time not given
Measured: 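Viability relative to non-targeting control siRNA, expressed as robust z-score, plus a synergy score for each of the three anchor drugs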
Direction: viability z-score, no drug and viability vs control, no drug: higher = more cells survive the knock-down; synergy with trametinib and synergy with BYL719: higher = stronger synergy of knock-down with drug
Hit rule: 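a knock-down counts as essential when its robust viability z-score without drug is below -3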
Meaning of the calls: active = essential (knock-down alone kills cells); inactive = no change without drug
The whole screen tested 794 reagents; below is a random part of them. 12 of all reagents (1.5%) were called active. 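Calls cover knock-down without drug only; synergy scores stand apart, values above 0.15 being treated as synergy.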 Viability is capped at 1. Further read-outs or replicates are left out here. No sequences are given here. Not given: the amount of reagent, the time to read-out.

Gene	viability z-score, no drug	viability vs control, no drug (fraction of control)	synergy with trametinib	synergy with BYL719	activity call
DCK (deoxycytidine kinase)	-1.85	0.79	-0.0535	-0.101	inactive
ROR2 (ROR family WNT receptor 2)	0.901	1	-0.042	0.0564	inactive
PRKAR2B	-0.413	0.9	0.106	0.122	inactive
PDIK1L (PDLIM1 interacting kinase 1 like)	-0.0756	0.925	0.0453	0.0122	inactive
STK31 (serine/threonine kinase 31)	0.901	1	-0.248	-0.0618	inactive
RYK (receptor like tyrosine kinase)	0.361	0.959	-0.117	-0.00795	inactive
ERBB2 (erb-b2 receptor tyrosine kinase 2)	0.732	0.987	-0.113	-0.0016	inactive
CDC42BPG (CDC42 binding protein kinase gamma)	0.722	0.986	-0.0227	0.00383	inactive
SLK (STE20 like kinase)	0.901	1	0.0803	0.0173	inactive
PINK1 (PTEN induced kinase 1)	-0.443	0.897	-0.00521	-0.0462	inactive

Next part; the last 3 above are carried over.
Gene	viability z-score, no drug	viability vs control, no drug (fraction of control)	synergy with trametinib	synergy with BYL719	activity call
CDC42BPG (CDC42 binding protein kinase gamma)	0.722	0.986	-0.0227	0.00383	inactive
SLK (STE20 like kinase)	0.901	1	0.0803	0.0173	inactive
PINK1 (PTEN induced kinase 1)	-0.443	0.897	-0.00521	-0.0462	inactive
PIM2 (Pim-2 proto-oncogene, serine/threonine kinase)	-0.577	0.887	-0.00803	-0.00259	inactive
SNRK (SNF related kinase)	-0.267	0.911	-0.00521	0.0476	inactive
PIP4K2A (phosphatidylinositol-5-phosphate 4-kinase type 2 alpha)	0.901	1	-0.104	-0.048	inactive
CASK (calcium/calmodulin dependent serine protein kinase)	-0.947	0.859	0.0203	-0.0207	inactive
MAPK6 (mitogen-activated protein kinase 6)	-0.143	0.92	-0.025	-0.0482	inactive
RPS6KA3 (ribosomal protein S6 kinase A3)	0.901	1	0.0177	0.0813	inactive
TJP2 (tight junction protein 2)	0.901	1	-0.0943	-0.0697	inactive
NTRK1 (neurotrophic receptor tyrosine kinase 1)	-0.3	0.908	0.00568	0.0542	inactive
DNMT3A (DNA methyltransferase 3 alpha)	0.758	0.989	-0.0739	-0.141	inactive
BMPR1B (bone morphogenetic protein receptor type 1B)	0.714	0.986	-0.0185	0.164	inactive
FGFRL1 (fibroblast growth factor receptor like 1)	0.234	0.949	-0.0652	0.0296	inactive
CALM1 (calmodulin 1)	0.901	1	0.0299	0.0308	inactive
RELA (RELA proto-oncogene, NF-kB subunit)	0.884	0.999	0.0996	0.0775	inactive
CAMK1D (calcium/calmodulin dependent protein kinase ID)	-0.802	0.87	0.0535	-0.0764	inactive
TTBK1 (tau tubulin kinase 1)	-0.62	0.884	0.0669	0.13	inactive
PACSIN1 (protein kinase C and casein kinase substrate in neurons 1)	0.901	1	0.0588	0.0811	inactive
PANK4 (pantothenate kinase 4 (inactive))	0.125	0.941	0.0703	0.129	inactive
PRKG2 (protein kinase cGMP-dependent 2)	-0.829	0.868	0.0384	0.027	inactive
MET (MET proto-oncogene, receptor tyrosine kinase)	0.901	1	-0.0261	0.0692	inactive
NUP62 (nucleoporin 62)	0.901	1	0.0186	0.0915	inactive
